Data from US12042497B2, “Methods of treating brain tumors using combination therapy” (Servier Pharmaceuticals LLC, priority 2017, dated 2024).
At least one compound was matched to its structure with a doubt left.

Tested on: subcutaneous human neurosphere-derived glioma cells carrying an IDH1 R132H mutation (TS603 cell line)
Experiment: Subcutaneous IDH1m glioma mouse model, tumor volume by digital calipers (Example 2)
Assay type: in vivo, mice
Conditions: monotherapy; TMZ 10 mg/kg Monday-Thursday, Compound A 50 mg/kg BID
Procedure: The study mice were divided into six study groups, which were treated in accordance with the treatment schedules summarized in Table 4.
Ninety (90) 5-6 week old male mice (obtained from Taconic Biosciences) were implanted subcutaneously with 1×10^6 cells bearing the IDH1^R132H mutation in growth hormone/heparin free media with Matrigel (Final, 1:1). […] Excess mice were inoculated to account for tumor variability. Tumor volume and body weights were monitored twice a week until tumors reached ˜200 mm^3. Once tumors reached ˜200 mm^3 animals were randomized into 6 groups based on digital caliper estimation of tumor burden.
The TMZ (2 mg/mL) formulation (Groups 2, 4, 5, and 6) was prepared as follows: • 1) 24 mg of TMZ was weighed into a clear vial. • 2) 12 ml of 0.5% methylcellulose and 0.1% Tween 80 in water was added. • 3) The vial was vortexed for 1-2 min, sonicated if needed, and stored on ice prior to use.
The TMZ formulation was administered once per day on Monday-Thursday, followed by 3 days off beginning on Day 1 after randomization of the animals into groups. […] The study continued for 55 days.
The error bars in FIG. 2 correspond to the standard error of the mean for each data point.
Statistical analysis was conducted by comparing tumor volumes from the final tumor measurement on Day 54 using an unpaired, Student's T-test test between groups.

Cn1nnc2c(C(N)=O)ncn2c1=O [TMZ, temozolomide, reference compound]
Tumor growth inhibition relative to vehicle: statistically significant tumor growth inhibition
